In US11225470B2, “Tetrazolinone compounds and its use as pest control agents” (SUMITOMO CHEMICAL COMPANY, LIMITED, priority 2016, dated 2022):
Some of these results come from one statement about several compounds together.

How the values were obtained:
Format in all cases: in vivo
[1] = system: soybean rust fungi (Phakopsora pachyrhizi); test: soybean rust test, spraying before inoculation; settings: 200 ppm foliar spray, inoculation after 4 days; soybean cv Kurosengoku
[2] = system: wheat leaf blotch fungi (Septoria tritici); test: wheat leaf blotch test, spraying before inoculation; settings: inoculation after 4 days
[3] = system: wheat brown rust fungi (Puccinia recondita); test: wheat brown rust test; settings: inoculation after 5 days, wheat cv SHIROGANE
[4] = system: barley net blotch fungi (Pyrenophora teres); test: barley net blotch test; settings: 200 ppm foliar spray, inoculation after 2 days; barley cv MIKAMO GOLDEN
[5] = system: kidney bean sclerotinia rot fungi (Sclerotinia sclerotiorum); test: kidney bean sclerotinia rot test; settings: kidney bean cv NAGAUZURA SAITO, observed after four days
Procedure: (§1) Each of plastic pots was filled with soil and thereto Kidney bean (cv; NAGAUZURA SAITO) seeds were sown and the kidney beans were grown in a greenhouse for 8 days. Thereafter, any of the present compounds 1-1, 1-2, 1-3, 1-5, 1-10, 3-16, 3-22, 4-2, 4-3, 4-4, 4-8, or 6-2, each of which was made to a formulation according to the similar method to that of Formulation Example 6, was mixed with water so as to be a prescribed concentration (500 ppm). The adjusted solutions were sprayed to foliar parts so as to adhere adequately on the leaves of the above-mentioned kidney bean. After spraying the mixtures, the kidney beans were air-dried and a PDA medium containing hyphae of kidney bean sclerotinia rot fungi (Sclerotinia sclerotiorum) was placed on the leaves of the kidney bean. After the inoculation, all kidney beans were placed under a high humidity during only night and after four days, a lesion area was observed.
as §1, with “Thereafter, any of the present compounds 1-1, 1-2, 1-3, 1-5, 1-10, 3-16, 3-22, 4-2, 4-3, 4-4, 4-8, or 6-2, each of which was made to a formulation according to the similar method to that of Formulation Example 6, was mixed with water so as to be a prescribed concentration (500 ppm).” left out

[6] = system: barley scald fungi (Rhynchosporium secalis); test: barley scald test; settings: inoculation after 2 days, barley cv NISHINOHOSHI
[7] = system: cucumber downy mildew fungi (Pseudoperonospora cubensis); test: cucumber downy mildew test; settings: inoculation after 1 day, cucumber cv SAGAMIHANJIRO
[8] = system: wheat leaf blotch fungi (Septoria tritici); test: wheat leaf blotch test, spraying after inoculation; settings: 200 ppm foliar spray 3 days after inoculation; wheat cv APOGEE
[9] = system: soybean frogeye leaf spot disease fungi (Cercospora sojina); test: soybean frogeye leaf spot test, spraying before inoculation; settings: 200 ppm foliar spray, inoculation after 2 days; soybean cv TACHINAGAHA
[10] = system: soybean powdery mildew fungi (Erysiphe diffusa); test: soybean powdery mildew test, spraying after inoculation; settings: 200 ppm foliar spray 2 days after inoculation; soybean cv KUROSENGOKU
[11] = 200 ppm foliar spray, wheat cv APOGEE
[12] = 500 ppm foliar spray, wheat cv Apogee

CCC(=NN=C(C)c1ccco1)OCc1c(C)cccc1-n1nnn(C)c1=O [1-1]
≤ 30%: lesion area compared to the lesion area in an untreated soybean [1] | lesion area compared to the lesion area in an untreated wheat [2, 11] | lesion area compared to the lesion area in an untreated wheat [2, 12] | lesion area compared to the lesion area in an untreated wheat ([3]; 200 ppm foliar spray) | lesion area compared to the lesion area in an untreated barley [4] | lesion area compared to the lesion area in an untreated kidney bean ([5]; 500 ppm foliar spray) | lesion area compared to the lesion area in an untreated barley ([6]; 200 ppm foliar spray) | lesion area compared to the lesion area in an untreated barley ([6]; 500 ppm foliar spray) | lesion area compared to the lesion area in an untreated cucumber ([7]; 200 ppm foliar spray) | lesion area compared to the lesion area in an untreated wheat [8]

CCC(=NN=C(C)C(C)=NOCCOC)OCc1c(C)cccc1-n1nnn(C)c1=O [C-14]
≤ 30%: lesion area compared to the lesion area in an untreated soybean [1] | lesion area compared to the lesion area in an untreated wheat [2, 11] | lesion area compared to the lesion area in an untreated wheat [2, 12] | lesion area compared to the lesion area in an untreated wheat ([3]; 200 ppm foliar spray) | lesion area compared to the lesion area in an untreated wheat ([3]; 500 ppm foliar spray) | lesion area compared to the lesion area in an untreated barley [4] | lesion area compared to the lesion area in an untreated kidney bean ([5]; 200 ppm foliar spray) | lesion area compared to the lesion area in an untreated kidney bean ([5]; 500 ppm foliar spray) | lesion area compared to the lesion area in an untreated barley ([6]; 500 ppm foliar spray) | lesion area compared to the lesion area in an untreated cucumber ([7]; 200 ppm foliar spray) | lesion area compared to the lesion area in an untreated wheat [8]

CCC(=NN=C(C)c1cnc2ccccc2c1)OCc1c(C)cccc1-n1nnn(C)c1=O [D-5]
≤ 30%: lesion area compared to the lesion area in an untreated soybean [1] | lesion area compared to the lesion area in an untreated wheat [2, 11] | lesion area compared to the lesion area in an untreated wheat [2, 12] | lesion area compared to the lesion area in an untreated wheat ([3]; 200 ppm foliar spray) | lesion area compared to the lesion area in an untreated wheat ([3]; 500 ppm foliar spray) | lesion area compared to the lesion area in an untreated barley [4] | lesion area compared to the lesion area in an untreated barley ([6]; 200 ppm foliar spray) | lesion area compared to the lesion area in an untreated barley ([6]; 500 ppm foliar spray) | lesion area compared to the lesion area in an untreated cucumber ([7]; 50 ppm foliar spray) | lesion area compared to the lesion area in an untreated cucumber ([7]; 200 ppm foliar spray) | lesion area compared to the lesion area in an untreated wheat [8]

CCC(=NN=C(C)c1ccc2c(ccn2C)c1)OCc1c(C)cccc1-n1nnn(C)c1=O [D-7]
≤ 30%: lesion area compared to the lesion area in an untreated soybean [1] | lesion area compared to the lesion area in an untreated wheat [2, 11] | lesion area compared to the lesion area in an untreated wheat [2, 12] | lesion area compared to the lesion area in an untreated wheat ([3]; 200 ppm foliar spray) | lesion area compared to the lesion area in an untreated wheat ([3]; 500 ppm foliar spray) | lesion area compared to the lesion area in an untreated barley [4] | lesion area compared to the lesion area in an untreated barley ([6]; 200 ppm foliar spray) | lesion area compared to the lesion area in an untreated barley ([6]; 500 ppm foliar spray) | lesion area compared to the lesion area in an untreated cucumber ([7]; 200 ppm foliar spray) | lesion area compared to the lesion area in an untreated wheat [8]

CCC(=NN=C(C)c1nc2ccccc2n1C)OCc1c(C)cccc1-n1nnn(C)c1=O [D-14]
≤ 30%: lesion area compared to the lesion area in an untreated soybean [1] | lesion area compared to the lesion area in an untreated wheat [2, 11] | lesion area compared to the lesion area in an untreated wheat ([3]; 200 ppm foliar spray) | lesion area compared to the lesion area in an untreated barley [4] | lesion area compared to the lesion area in an untreated kidney bean ([5]; 200 ppm foliar spray) | lesion area compared to the lesion area in an untreated wheat [8] | lesion area compared to the lesion area in an untreated soybean [9] | lesion area compared to the lesion area in an untreated soybean [10]

CCC(=NN=C(C)c1nc2ccccc2o1)OCc1c(C)cccc1-n1nnn(C)c1=O [D-15]
≤ 30%: lesion area compared to the lesion area in an untreated soybean [1] | lesion area compared to the lesion area in an untreated wheat [2, 11] | lesion area compared to the lesion area in an untreated wheat ([3]; 200 ppm foliar spray) | lesion area compared to the lesion area in an untreated barley [4] | lesion area compared to the lesion area in an untreated wheat [8] | lesion area compared to the lesion area in an untreated soybean [9] | lesion area compared to the lesion area in an untreated soybean [10]

CCC(=NN=C(C)c1cn(C)c2ccccc12)OCc1c(C)cccc1-n1nnn(C)c1=O [D-17]
≤ 30%: lesion area compared to the lesion area in an untreated soybean [1] | lesion area compared to the lesion area in an untreated wheat [2, 11] | lesion area compared to the lesion area in an untreated wheat ([3]; 200 ppm foliar spray) | lesion area compared to the lesion area in an untreated barley [4] | lesion area compared to the lesion area in an untreated kidney bean ([5]; 200 ppm foliar spray) | lesion area compared to the lesion area in an untreated wheat [8] | lesion area compared to the lesion area in an untreated soybean [9] | lesion area compared to the lesion area in an untreated soybean [10]

CCC(=NN=C(C)c1cn(C)c2ncccc12)OCc1c(C)cccc1-n1nnn(C)c1=O [D-20]
≤ 30%: lesion area compared to the lesion area in an untreated soybean [1] | lesion area compared to the lesion area in an untreated wheat [2, 11] | lesion area compared to the lesion area in an untreated wheat [2, 12] | lesion area compared to the lesion area in an untreated wheat ([3]; 200 ppm foliar spray) | lesion area compared to the lesion area in an untreated wheat ([3]; 500 ppm foliar spray) | lesion area compared to the lesion area in an untreated barley [4] | lesion area compared to the lesion area in an untreated kidney bean ([5]; 200 ppm foliar spray) | lesion area compared to the lesion area in an untreated kidney bean ([5]; 500 ppm foliar spray) | lesion area compared to the lesion area in an untreated barley ([6]; 500 ppm foliar spray) | lesion area compared to the lesion area in an untreated wheat [8] | lesion area compared to the lesion area in an untreated soybean [9] | lesion area compared to the lesion area in an untreated soybean [10]

C=C=Cn1ccc(C(C)=NN=C(CC)OCc2c(C)cccc2-n2nnn(C)c2=O)n1 [D-29]
≤ 30%: lesion area compared to the lesion area in an untreated soybean [10]

CCC(=NN=C1CCc2c(OC)cccc21)OCc1c(C)cccc1-n1nnn(C)c1=O [E-6]
≤ 30%: lesion area compared to the lesion area in an untreated soybean [1] | lesion area compared to the lesion area in an untreated wheat [2, 11] | lesion area compared to the lesion area in an untreated wheat [2, 12] | lesion area compared to the lesion area in an untreated wheat ([3]; 200 ppm foliar spray) | lesion area compared to the lesion area in an untreated wheat ([3]; 500 ppm foliar spray) | lesion area compared to the lesion area in an untreated barley [4] | lesion area compared to the lesion area in an untreated kidney bean ([5]; 200 ppm foliar spray) | lesion area compared to the lesion area in an untreated kidney bean ([5]; 500 ppm foliar spray) | lesion area compared to the lesion area in an untreated barley ([6]; 500 ppm foliar spray) | lesion area compared to the lesion area in an untreated cucumber ([7]; 50 ppm foliar spray) | lesion area compared to the lesion area in an untreated cucumber ([7]; 200 ppm foliar spray) | lesion area compared to the lesion area in an untreated wheat [8] | lesion area compared to the lesion area in an untreated soybean [10]

CCC(=NN=C1CCc2cc(OC)ccc21)OCc1c(C)cccc1-n1nnn(C)c1=O [E-7]
≤ 30%: lesion area compared to the lesion area in an untreated soybean [1] | lesion area compared to the lesion area in an untreated wheat [2, 11] | lesion area compared to the lesion area in an untreated barley [4] | lesion area compared to the lesion area in an untreated kidney bean ([5]; 200 ppm foliar spray) | lesion area compared to the lesion area in an untreated wheat [8] | lesion area compared to the lesion area in an untreated soybean [9] | lesion area compared to the lesion area in an untreated soybean [10]

CCC(=NN=C1COc2ccccc21)OCc1c(C)cccc1-n1nnn(C)c1=O [E-10]
≤ 30%: lesion area compared to the lesion area in an untreated wheat [2, 12] | lesion area compared to the lesion area in an untreated wheat ([3]; 200 ppm foliar spray) | lesion area compared to the lesion area in an untreated wheat ([3]; 500 ppm foliar spray) | lesion area compared to the lesion area in an untreated barley [4] | lesion area compared to the lesion area in an untreated kidney bean ([5]; 500 ppm foliar spray) | lesion area compared to the lesion area in an untreated barley ([6]; 500 ppm foliar spray) | lesion area compared to the lesion area in an untreated wheat [8] | lesion area compared to the lesion area in an untreated soybean [9] | lesion area compared to the lesion area in an untreated soybean [10]

CCC(=NN=C1CCOc2ccc(Cl)cc21)OCc1c(C)cccc1-n1nnn(C)c1=O [E-22]
≤ 30%: lesion area compared to the lesion area in an untreated soybean [1] | lesion area compared to the lesion area in an untreated wheat [2, 11] | lesion area compared to the lesion area in an untreated wheat [2, 12] | lesion area compared to the lesion area in an untreated wheat ([3]; 200 ppm foliar spray) | lesion area compared to the lesion area in an untreated wheat ([3]; 500 ppm foliar spray) | lesion area compared to the lesion area in an untreated barley [4] | lesion area compared to the lesion area in an untreated barley ([6]; 500 ppm foliar spray) | lesion area compared to the lesion area in an untreated cucumber ([7]; 50 ppm foliar spray) | lesion area compared to the lesion area in an untreated cucumber ([7]; 200 ppm foliar spray) | lesion area compared to the lesion area in an untreated wheat [8] | lesion area compared to the lesion area in an untreated soybean [9]
